Experiment [1] addresses HA-tagged ATL2 (Atlastin 2), wild type, stably expressed in HCT116 cells (human) (UniProt Q8NHH9). Nature of the experiment: co-IP.
The target in experiment [2] is HA-tagged ATL2 Arg244Gln (R244Q), dimerization-defective mutant, stably expressed in HCT116 cells (human) (UniProt Q8NHH9). Kind of experiment: co-IP.

The chains behind the UniProt entries cited, without tags or fusion partners. Where a name states a change or a piece, a line headed by the entry shows the natural chain unless it says otherwise.
UniProt Q8NHH9, whole entry: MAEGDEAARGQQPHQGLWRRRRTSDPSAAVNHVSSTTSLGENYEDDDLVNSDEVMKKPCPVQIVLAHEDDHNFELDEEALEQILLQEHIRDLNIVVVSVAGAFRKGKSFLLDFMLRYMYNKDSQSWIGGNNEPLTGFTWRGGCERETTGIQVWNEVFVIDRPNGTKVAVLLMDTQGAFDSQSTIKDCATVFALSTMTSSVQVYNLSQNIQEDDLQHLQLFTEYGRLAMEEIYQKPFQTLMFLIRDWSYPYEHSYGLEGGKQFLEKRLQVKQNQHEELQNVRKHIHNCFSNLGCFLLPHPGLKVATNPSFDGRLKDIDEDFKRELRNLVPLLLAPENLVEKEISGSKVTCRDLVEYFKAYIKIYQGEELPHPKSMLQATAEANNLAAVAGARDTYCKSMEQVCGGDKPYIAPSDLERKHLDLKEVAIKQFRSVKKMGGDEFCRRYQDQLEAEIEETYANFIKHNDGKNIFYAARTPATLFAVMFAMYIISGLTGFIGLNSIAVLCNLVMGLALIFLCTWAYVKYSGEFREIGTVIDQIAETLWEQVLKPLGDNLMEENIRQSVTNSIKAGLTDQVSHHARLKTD

Results are given in words; binding and its absence hold for the method and conditions named. In cells and extracts the contact can be indirect. Some entries that bind do so weakly or less than the wild type.

B1: ATL3 (Atlastin 3) in HCT116 cells (protein, UniProt Q6DD88 1-541)
chain: MLSPQRVAAAASRGADDAMESSKPGPVQVVLVQKDQHSFELDEKALASILLQDHIRDLDVVVVSVAGAFRKGKSFILDFMLRYLYSQKESGHSNWLGDPEEPLTGFSWRGGSDPETTGIQIWSEVFTVEKPGGKKVAVVLMDTQGAFDSQSTVKDCATIFALSTMTSSVQIYNLSQNIQEDDLQQLQLFTEYGRLAMDEIFQKPFQTLMFLVRDWSFPYEYSYGLQGGMAFLDKRLQVKEHQHEEIQNVRNHIHSCFSDVTCFLLPHPGLQVATSPDFDGKLKDIAGEFKEQLQALIPYVLNPSKLMEKEINGSKVTCRGLLEYFKAYIKIYQGEDLPHPKSMLQATAEANNLAAAASAKDIYYNNMEEVCGGEKPYLSPDILEEKHCEFKQLALDHFKKTKKMGGKDFSFRYQQELEEEIKELYENFCKHNGSKNVFSTFRTPAVLFTGIVALYIASGLTGFIGLEVVAQLFNCMVGLLLIALLTWGYIRYSGQYRELGGAIDFGAAYVLEQASSHIGNSTQATVRDAVVGRPSMDKKAQ
As to B1, the binding result in experiment [1] was “binds”; in experiment [2] it was “no binding”.

These data come from publication doi:10.1101/274530.
